Results from the supplement of paper PMC10849652.
The other results are listed elsewhere or left out.

Protein sequences, listed by entry. Tags and fused reporters are not part of them. Lines headed by an entry give the natural chain unless they say otherwise; changes in a name come on top.
UniProt O75143: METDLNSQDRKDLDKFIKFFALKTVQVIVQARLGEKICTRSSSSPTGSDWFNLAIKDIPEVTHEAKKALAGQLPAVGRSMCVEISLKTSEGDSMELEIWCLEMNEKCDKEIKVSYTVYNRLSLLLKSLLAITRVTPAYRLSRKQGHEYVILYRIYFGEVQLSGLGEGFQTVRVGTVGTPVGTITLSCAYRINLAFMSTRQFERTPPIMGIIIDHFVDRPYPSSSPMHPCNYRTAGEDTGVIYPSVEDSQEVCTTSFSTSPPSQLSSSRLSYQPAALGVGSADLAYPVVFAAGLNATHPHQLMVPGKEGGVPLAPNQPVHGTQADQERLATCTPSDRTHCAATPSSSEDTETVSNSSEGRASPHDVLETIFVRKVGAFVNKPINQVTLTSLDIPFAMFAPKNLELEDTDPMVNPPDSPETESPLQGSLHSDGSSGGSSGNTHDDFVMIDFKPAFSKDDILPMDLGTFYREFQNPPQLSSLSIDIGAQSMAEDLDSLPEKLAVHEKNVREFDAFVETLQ
UniProt Q96DT6: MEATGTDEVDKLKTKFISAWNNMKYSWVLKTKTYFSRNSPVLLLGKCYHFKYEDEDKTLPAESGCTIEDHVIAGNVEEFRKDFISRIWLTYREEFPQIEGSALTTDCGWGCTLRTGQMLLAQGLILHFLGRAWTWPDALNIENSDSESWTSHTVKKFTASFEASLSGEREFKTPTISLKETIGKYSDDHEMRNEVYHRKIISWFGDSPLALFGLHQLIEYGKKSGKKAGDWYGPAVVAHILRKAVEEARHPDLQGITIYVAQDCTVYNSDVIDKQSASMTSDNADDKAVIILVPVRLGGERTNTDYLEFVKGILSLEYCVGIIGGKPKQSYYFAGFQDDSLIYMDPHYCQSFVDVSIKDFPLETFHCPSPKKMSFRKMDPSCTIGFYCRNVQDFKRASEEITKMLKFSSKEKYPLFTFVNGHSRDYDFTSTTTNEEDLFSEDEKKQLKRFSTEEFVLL
UniProt Q9Y6H3: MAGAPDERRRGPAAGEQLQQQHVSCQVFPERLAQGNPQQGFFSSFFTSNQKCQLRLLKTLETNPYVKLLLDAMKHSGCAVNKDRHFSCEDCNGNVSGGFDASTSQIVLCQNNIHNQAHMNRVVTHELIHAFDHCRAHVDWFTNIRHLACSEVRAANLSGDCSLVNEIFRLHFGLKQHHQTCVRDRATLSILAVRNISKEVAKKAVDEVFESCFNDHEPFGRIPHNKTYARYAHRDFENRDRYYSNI
UniProt Q66PJ3: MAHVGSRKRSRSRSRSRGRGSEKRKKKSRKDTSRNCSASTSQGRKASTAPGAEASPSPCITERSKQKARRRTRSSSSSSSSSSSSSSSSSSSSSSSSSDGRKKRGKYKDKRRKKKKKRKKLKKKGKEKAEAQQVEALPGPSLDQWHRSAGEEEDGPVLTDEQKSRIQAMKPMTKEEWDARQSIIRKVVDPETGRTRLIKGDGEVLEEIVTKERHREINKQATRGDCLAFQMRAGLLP
UniProt P21281, whole entry, looked up: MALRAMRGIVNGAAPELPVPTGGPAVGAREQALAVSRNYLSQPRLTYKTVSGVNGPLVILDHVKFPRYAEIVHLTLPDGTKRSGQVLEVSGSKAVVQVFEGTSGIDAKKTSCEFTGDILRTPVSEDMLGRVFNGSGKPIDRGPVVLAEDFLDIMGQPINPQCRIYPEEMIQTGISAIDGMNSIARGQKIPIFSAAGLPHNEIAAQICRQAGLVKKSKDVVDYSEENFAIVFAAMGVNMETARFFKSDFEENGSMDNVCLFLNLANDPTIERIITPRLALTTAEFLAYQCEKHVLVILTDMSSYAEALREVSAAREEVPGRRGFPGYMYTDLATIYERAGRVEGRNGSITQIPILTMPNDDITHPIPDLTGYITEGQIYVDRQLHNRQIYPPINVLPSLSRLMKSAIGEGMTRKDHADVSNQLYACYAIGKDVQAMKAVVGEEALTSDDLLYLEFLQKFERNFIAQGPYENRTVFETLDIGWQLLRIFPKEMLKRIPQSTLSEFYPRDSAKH
UniProt P06576, whole entry, looked up: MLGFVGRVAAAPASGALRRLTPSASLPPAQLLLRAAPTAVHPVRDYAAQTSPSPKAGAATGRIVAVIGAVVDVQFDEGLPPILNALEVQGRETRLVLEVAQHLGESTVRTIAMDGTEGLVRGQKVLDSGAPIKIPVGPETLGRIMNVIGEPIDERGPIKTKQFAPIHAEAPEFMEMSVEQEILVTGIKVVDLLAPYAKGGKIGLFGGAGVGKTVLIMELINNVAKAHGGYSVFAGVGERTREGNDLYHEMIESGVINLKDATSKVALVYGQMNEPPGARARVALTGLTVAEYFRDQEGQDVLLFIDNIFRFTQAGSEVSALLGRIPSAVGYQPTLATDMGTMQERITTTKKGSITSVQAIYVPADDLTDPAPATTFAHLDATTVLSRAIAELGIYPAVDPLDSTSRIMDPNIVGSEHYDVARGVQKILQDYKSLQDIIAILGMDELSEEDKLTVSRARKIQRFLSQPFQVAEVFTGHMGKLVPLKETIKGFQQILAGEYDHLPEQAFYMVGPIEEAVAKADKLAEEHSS
UniProt Q93050, whole entry, looked up: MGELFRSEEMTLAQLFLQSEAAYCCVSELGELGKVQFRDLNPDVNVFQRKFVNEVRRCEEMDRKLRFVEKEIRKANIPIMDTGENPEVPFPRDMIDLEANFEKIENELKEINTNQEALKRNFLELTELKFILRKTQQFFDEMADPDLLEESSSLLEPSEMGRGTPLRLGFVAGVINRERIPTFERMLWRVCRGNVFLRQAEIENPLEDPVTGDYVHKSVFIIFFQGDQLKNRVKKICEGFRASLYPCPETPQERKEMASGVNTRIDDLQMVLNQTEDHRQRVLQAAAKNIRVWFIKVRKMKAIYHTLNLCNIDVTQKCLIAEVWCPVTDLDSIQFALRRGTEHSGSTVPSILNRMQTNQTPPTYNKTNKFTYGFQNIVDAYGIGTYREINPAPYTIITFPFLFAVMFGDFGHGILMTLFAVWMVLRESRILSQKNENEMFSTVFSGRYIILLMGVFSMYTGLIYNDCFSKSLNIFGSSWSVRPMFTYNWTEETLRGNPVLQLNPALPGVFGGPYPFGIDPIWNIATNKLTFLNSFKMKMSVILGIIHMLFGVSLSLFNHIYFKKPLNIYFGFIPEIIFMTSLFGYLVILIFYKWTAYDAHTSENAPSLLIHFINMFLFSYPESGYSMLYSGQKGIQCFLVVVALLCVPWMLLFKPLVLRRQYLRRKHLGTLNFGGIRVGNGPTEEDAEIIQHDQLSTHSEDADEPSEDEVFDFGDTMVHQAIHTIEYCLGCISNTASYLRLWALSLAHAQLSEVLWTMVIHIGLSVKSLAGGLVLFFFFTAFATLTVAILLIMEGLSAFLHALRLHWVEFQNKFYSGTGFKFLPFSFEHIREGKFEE
UniProt Q9UH62: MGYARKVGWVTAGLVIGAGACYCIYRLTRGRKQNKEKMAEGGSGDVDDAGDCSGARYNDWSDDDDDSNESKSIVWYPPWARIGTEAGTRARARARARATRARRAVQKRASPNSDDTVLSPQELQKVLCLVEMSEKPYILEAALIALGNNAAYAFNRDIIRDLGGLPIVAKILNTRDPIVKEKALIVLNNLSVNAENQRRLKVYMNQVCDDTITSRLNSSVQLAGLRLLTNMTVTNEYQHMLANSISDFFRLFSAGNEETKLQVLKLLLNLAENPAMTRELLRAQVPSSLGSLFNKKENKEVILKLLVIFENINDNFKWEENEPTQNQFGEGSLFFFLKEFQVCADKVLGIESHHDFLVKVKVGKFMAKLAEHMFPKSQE
UniProt Q93084: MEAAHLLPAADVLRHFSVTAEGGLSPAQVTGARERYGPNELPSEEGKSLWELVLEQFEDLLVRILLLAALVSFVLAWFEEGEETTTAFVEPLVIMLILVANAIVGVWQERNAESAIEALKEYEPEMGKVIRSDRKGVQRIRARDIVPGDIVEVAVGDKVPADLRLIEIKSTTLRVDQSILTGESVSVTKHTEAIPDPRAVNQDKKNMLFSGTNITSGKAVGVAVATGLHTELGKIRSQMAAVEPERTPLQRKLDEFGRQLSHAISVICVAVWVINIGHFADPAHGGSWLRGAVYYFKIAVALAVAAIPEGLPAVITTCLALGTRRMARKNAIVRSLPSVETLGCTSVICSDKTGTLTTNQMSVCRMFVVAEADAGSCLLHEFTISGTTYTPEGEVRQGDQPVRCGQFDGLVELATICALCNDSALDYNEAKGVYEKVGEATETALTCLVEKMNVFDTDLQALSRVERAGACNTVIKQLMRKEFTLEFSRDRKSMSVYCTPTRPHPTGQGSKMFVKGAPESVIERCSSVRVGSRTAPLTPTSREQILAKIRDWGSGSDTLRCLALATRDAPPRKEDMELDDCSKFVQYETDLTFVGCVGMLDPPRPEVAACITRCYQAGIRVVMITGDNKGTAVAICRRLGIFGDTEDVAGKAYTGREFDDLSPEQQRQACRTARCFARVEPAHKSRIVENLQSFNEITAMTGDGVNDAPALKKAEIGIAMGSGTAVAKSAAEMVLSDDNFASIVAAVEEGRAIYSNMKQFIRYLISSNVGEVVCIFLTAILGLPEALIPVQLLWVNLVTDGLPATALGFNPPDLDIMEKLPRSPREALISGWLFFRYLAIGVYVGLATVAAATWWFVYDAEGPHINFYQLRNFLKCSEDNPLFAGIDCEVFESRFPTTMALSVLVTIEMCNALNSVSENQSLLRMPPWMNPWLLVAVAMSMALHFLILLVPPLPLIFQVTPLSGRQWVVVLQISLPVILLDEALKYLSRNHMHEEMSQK
UniProt Q06055: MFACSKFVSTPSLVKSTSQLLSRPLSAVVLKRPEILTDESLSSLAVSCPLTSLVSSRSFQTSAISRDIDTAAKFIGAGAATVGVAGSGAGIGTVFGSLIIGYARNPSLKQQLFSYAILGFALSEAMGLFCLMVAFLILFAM
UniProt Q96IX5: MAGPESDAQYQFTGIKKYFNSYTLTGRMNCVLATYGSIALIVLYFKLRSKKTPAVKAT
UniProt Q16864, whole entry, looked up: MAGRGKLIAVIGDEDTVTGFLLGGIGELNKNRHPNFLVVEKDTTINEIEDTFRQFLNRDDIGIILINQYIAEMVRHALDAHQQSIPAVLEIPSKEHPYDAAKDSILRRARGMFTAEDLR
UniProt P16615: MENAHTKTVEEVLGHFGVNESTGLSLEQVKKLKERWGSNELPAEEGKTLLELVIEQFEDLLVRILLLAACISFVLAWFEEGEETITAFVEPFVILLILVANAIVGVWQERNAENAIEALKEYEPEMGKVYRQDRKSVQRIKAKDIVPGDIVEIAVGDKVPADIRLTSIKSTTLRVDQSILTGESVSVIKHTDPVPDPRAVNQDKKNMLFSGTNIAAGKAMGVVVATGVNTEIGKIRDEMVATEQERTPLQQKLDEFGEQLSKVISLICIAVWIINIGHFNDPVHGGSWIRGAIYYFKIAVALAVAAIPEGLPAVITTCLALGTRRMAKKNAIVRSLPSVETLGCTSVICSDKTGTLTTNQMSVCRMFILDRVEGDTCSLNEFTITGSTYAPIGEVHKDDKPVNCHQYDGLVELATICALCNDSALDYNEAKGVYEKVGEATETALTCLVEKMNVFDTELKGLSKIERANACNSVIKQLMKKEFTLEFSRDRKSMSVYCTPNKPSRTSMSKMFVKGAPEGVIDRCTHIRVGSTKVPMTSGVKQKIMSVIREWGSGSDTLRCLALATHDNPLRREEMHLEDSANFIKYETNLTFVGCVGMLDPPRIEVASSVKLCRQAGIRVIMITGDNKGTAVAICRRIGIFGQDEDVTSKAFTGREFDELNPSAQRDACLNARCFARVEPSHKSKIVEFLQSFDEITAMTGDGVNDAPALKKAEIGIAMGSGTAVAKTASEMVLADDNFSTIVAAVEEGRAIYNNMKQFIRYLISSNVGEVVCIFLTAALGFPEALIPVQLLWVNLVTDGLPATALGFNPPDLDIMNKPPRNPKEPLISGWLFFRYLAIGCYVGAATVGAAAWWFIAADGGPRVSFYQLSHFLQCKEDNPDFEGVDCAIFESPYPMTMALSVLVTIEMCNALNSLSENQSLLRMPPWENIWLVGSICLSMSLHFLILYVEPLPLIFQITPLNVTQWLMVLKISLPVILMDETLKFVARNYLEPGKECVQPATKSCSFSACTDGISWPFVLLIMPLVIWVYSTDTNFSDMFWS
UniProt Q15904, whole entry, looked up: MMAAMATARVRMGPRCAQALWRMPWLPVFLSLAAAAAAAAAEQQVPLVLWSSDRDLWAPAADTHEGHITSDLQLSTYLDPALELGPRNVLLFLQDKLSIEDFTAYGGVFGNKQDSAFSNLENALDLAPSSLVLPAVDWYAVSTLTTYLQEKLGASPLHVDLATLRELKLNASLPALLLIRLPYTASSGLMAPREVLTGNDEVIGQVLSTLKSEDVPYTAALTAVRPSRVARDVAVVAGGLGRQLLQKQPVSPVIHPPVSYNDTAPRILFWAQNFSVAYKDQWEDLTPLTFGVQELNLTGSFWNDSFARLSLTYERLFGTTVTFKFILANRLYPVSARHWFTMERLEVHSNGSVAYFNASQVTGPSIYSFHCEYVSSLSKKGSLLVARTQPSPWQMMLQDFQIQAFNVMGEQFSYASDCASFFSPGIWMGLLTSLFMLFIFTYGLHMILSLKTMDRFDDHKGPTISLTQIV

Experiments:
Assay in all cases: log2 fold change, soluble protein after heating vs DMSO (PISA); higher = thermal stabilisation; K562 cells, 10 uM, 30 min; active = over 0.2 and 3.5 SD of the protein, either way, in both replicates (recomputed)
bafetinib = compound: Cc1ccc(NC(=O)c2ccc(CN3CC[C@H](N(C)C)C3)c(C(F)(F)F)c2)cc1Nc1nccc(-c2cncnc2)n1 [bafetinib]
Outline: (§1)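 For each measurement, 10 μM compound was applied for 30 min to K562 cells at 2×10^6 cells/mL. Aliquots were heated for 3 min across 48°C-58°C, pooled, and extracted in PBS with 0.5% NP-40 at 4°C; the supernatant after 21,000xg for 90 min was soluble protein. This was quantified by TMTpro 16plex LC-MS/MS with channel sums equalised, and thermal stability was reported relative to control samples from duplicates, on a log2 fold-change scale.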

[1] = compound: Cc1cccc(CC(=O)N2CCc3c2ccc(-c2cn(C)c4ncnc(N)c24)c3F)n1
Outline: as §1

nilotinib = compound: Cc1cn(-c2cc(NC(=O)c3ccc(C)c(Nc4nccc(-c5cccnc5)n4)c3)cc(C(F)(F)F)c2)cn1 [nilotinib]
Outline: as §1

[2] = compound: Cc1nc(Nc2n[nH]c3c2CN(C(=O)N[C@H](CN(C)C)c2ccccc2)C3(C)C)c2sccc2n1
Outline: as §1

dasatinib = compound: Cc1nc(Nc2ncc(C(=O)Nc3c(C)cccc3Cl)s2)cc(N2CCN(CCO)CC2)n1 [dasatinib]
Outline: as §1

[3] = compound: Cc1ncc(-c2ccnc(Nc3ccc(S(C)(=O)=O)cc3)n2)n1C(C)C
Outline: as §1

[4] = compound: Cn1cc(-c2ccc3c(c2)CCN3C(=O)Cc2cccc(C(F)(F)F)c2)c2c(N)ncnc21
Outline: as §1

[5] = compound: Cn1cc(-c2ccc3nnc(C(F)(F)c4ccc5ncccc5c4)n3n2)cn1
Outline: as §1

tipifarnib = compound: Cn1cncc1[C@@](N)(c1ccc(Cl)cc1)c1ccc2c(c1)c(-c1cccc(Cl)c1)cc(=O)n2C [tipifarnib]
Outline: as §1

mubritinib = compound: FC(F)(F)c1ccc(/C=C/c2nc(COc3ccc(CCCCn4ccnn4)cc3)co2)cc1 [mubritinib]
Outline: as §1

Measured: log2 fold change

ARMC6 (UniProt Q6NXE6)
inactive: bafetinib -0.027 | [1] 0.063 | nilotinib -0.024 | [2] -0.069 | dasatinib 0.013 | [3] 0.004 | [4] -0.22 | [5] -0.103 | tipifarnib 0.102 | mubritinib -0.065

ATG13 isoform 5 (UniProt O75143)
inactive: bafetinib -0.114 | [1] -0.007 | nilotinib -0.028 | [2] 0.018 | dasatinib 0.01 | [3] -0.004 | [4] -0.059 | [5] 0.005 | tipifarnib 0.044 | mubritinib 0.071

ATP1B3 (UniProt P54709)
inactive: bafetinib 0 | [1] -0.039 | nilotinib 0.06 | [2] -0.003 | dasatinib 0.027 | [3] 0.021 | [4] 0 | [5] -0.02 | tipifarnib 0.065 | mubritinib 0.043

ATG4C (UniProt Q96DT6)
inactive: bafetinib 0 | [1] -0.02 | nilotinib -0.152 | [2] -0.239 | dasatinib -0.276 | [3] 0.045 | [4] 0.044 | [5] -0.105 | tipifarnib 0.045 | mubritinib -0.006

Two consecutive entries out of the list so far:
ARMC6 (UniProt Q6NXE6)
inactive: bafetinib -0.027 | [1] 0.063 | nilotinib -0.024 | [2] -0.069 | dasatinib 0.013 | [3] 0.004 | [4] -0.22 | [5] -0.103 | tipifarnib 0.102 | mubritinib -0.065

ATG13 isoform 5 (UniProt O75143)
inactive: bafetinib -0.114 | [1] -0.007 | nilotinib -0.028 | [2] 0.018 | dasatinib 0.01 | [3] -0.004 | [4] -0.059 | [5] 0.005 | tipifarnib 0.044 | mubritinib 0.071

Following part.

ASDURF (UniProt L0R819)
inactive: bafetinib -0.021 | [1] -0.038 | nilotinib 0.009 | [2] 0.008 | dasatinib 0.06 | [3] -0.009 | [4] -0.016 | [5] -0.091 | tipifarnib 0.004 | mubritinib -0.005

ATP23 (UniProt Q9Y6H3)
inactive: bafetinib -0.1 | [1] -0.015 | nilotinib -0.092 | [2] 0.067 | dasatinib 0.041 | [3] -0.011 | [4] -0.097 | [5] 0.023 | tipifarnib 0.081 | mubritinib 0.033

ATP13A1 (UniProt Q9HD20)
inactive: bafetinib -0.019 | [1] 0.029 | nilotinib 0.02 | [2] 0.014 | dasatinib 0 | [3] -0.004 | [4] 0.012 | [5] 0.001 | tipifarnib -0.089 | mubritinib 0.027

ARL8B (UniProt Q9NVJ2)
inactive: bafetinib -0.124 | [1] 0.007 | nilotinib 0.058 | [2] -0.019 | dasatinib 0.01 | [3] -0.008 | [4] -0.005 | [5] 0.028 | tipifarnib 0.021 | mubritinib 0.013

ARL6IP4 (UniProt Q66PJ3)
active: [2] -0.459
inactive: bafetinib -0.042 | [1] 0.002 | nilotinib -0.012 | dasatinib 0.016 | [3] 0.013 | [4] 0.112 | [5] -0.038 | tipifarnib 0.019 | mubritinib 0.023

ATP6V1B2 (UniProt P21281)
inactive: bafetinib -0.139 | [1] 0.025 | nilotinib 0.007 | [2] -0.023 | dasatinib 0.043 | [3] 0.01 | [4] -0.015 | [5] -0.022 | tipifarnib 0.052 | mubritinib 0.087

ATG3 (UniProt Q9NT62)
inactive: bafetinib -0.059 | [1] -0.026 | nilotinib 0.029 | [2] 0.01 | dasatinib 0.017 | [3] -0.012 | [4] 0.013 | [5] 0.026 | tipifarnib -0.008 | mubritinib 0.059

ATP5F1B (UniProt P06576)
inactive: bafetinib -0.03 | [1] -0.044 | nilotinib 0.003 | [2] 0.013 | dasatinib 0.014 | [3] -0.029 | [4] 0.004 | [5] 0.022 | tipifarnib 0.064 | mubritinib 0.029

ATP6V0A1 isoform 3 (UniProt Q93050)
inactive: bafetinib -0.12 | [1] 0.153 | nilotinib -0.026 | [2] -0.029 | dasatinib 0.018 | [3] -0.079 | [4] -0.097 | [5] -0.098 | tipifarnib 0.038 | mubritinib -0.026

ARL5A (UniProt Q9Y689)
inactive: bafetinib 0.054 | [1] -0.067 | nilotinib 0 | [2] -0.001 | dasatinib 0.016 | [3] 0.026 | [4] -0.043 | [5] 0.099 | tipifarnib 0.016 | mubritinib 0.022

ARRB2 isoform 4 (UniProt P32121)
inactive: bafetinib -0.05 | [1] -0.025 | nilotinib 0.004 | [2] -0.026 | dasatinib 0.031 | [3] 0.009 | [4] 0.037 | [5] 0.07 | tipifarnib -0.006 | mubritinib 0.04

ARMCX3 (UniProt Q9UH62)
inactive: bafetinib 0.029 | [1] 0.082 | nilotinib -0.046 | [2] 0 | dasatinib -0.188 | [3] 0.01 | [4] -0.038 | [5] -0.094 | tipifarnib -0.08 | mubritinib 0.004

ATP5MG (UniProt O75964)
inactive: bafetinib -0.065 | [1] -0.172 | nilotinib 0.005 | [2] 0.011 | dasatinib 0.053 | [3] -0.004 | [4] 0.213 | [5] 0.143 | tipifarnib -0.04 | mubritinib 0.042

ATP6V1C1 (UniProt P21283)
inactive: bafetinib -0.083 | [1] 0.063 | nilotinib -0.137 | [2] -0.191 | dasatinib -0.045 | [3] 0.115 | [4] -0.083 | [5] -0.105 | tipifarnib 0.03 | mubritinib 0.083

ARPC5 (UniProt O15511)
inactive: bafetinib -0.023 | [1] -0.111 | nilotinib 0.107 | [2] -0.01 | dasatinib 0.083 | [3] 0.104 | [4] -0.033 | [5] -0.001 | tipifarnib -0.018 | mubritinib -0.012

ATP2A3 isoform 2 (UniProt Q93084)
inactive: bafetinib -0.063 | [1] -0.001 | nilotinib -0.057 | [2] -0.064 | dasatinib -0.005 | [3] 0.058 | [4] -0.014 | [5] 0.076 | tipifarnib 0.025 | mubritinib -0.044

ARL6IP5 (UniProt O75915)
inactive: bafetinib -0.004 | [1] 0.015 | nilotinib -0.07 | [2] 0.021 | dasatinib 0.012 | [3] 0.006 | [4] 0.004 | [5] 0.025 | tipifarnib -0.026 | mubritinib -0.01

ATP5MC2 isoform 2 (UniProt Q06055)
inactive: bafetinib -0.033 | [1] -0.087 | nilotinib -0.052 | [2] 0.006 | dasatinib 0.057 | [3] -0.082 | [4] 0.013 | [5] 0.024 | tipifarnib 0.213 | mubritinib 0.03

ARMC8 (UniProt Q8IUR7)
inactive: bafetinib 0.021 | [1] -0.026 | nilotinib -0.036 | [2] 0.038 | dasatinib -0.082 | [3] -0.008 | [4] -0.019 | [5] -0.112 | tipifarnib 0.007 | mubritinib -0.053

ATP5MD (UniProt Q96IX5)
inactive: bafetinib -0.104 | [1] -0.026 | nilotinib 0.124 | [2] -0.029 | dasatinib 0 | [3] 0.03 | [4] 0.141 | [5] 0.11 | tipifarnib -0.134 | mubritinib 0

ATP6V1F isoform 2 (UniProt Q16864)
inactive: bafetinib 0 | [1] -0.053 | nilotinib 0.078 | [2] -0.03 | dasatinib 0.034 | [3] -0.028 | [4] 0.101 | [5] 0.132 | tipifarnib 0.32 | mubritinib 0.045

ATG5 (UniProt Q9H1Y0)
inactive: bafetinib -0.014 | [1] 0.014 | nilotinib 0.069 | [2] -0.021 | dasatinib 0.021 | [3] 0.038 | [4] 0.031 | [5] -0.005 | tipifarnib -0.038 | mubritinib 0.01

ARL1 (UniProt P40616)
inactive: bafetinib 0.114 | [1] 0.205 | nilotinib -0.174 | [2] -0.017 | dasatinib -0.131 | [3] 0.096 | [4] 0.055 | [5] 0.019 | tipifarnib -0.123 | mubritinib -0.046

ASF1B (UniProt Q9NVP2)
inactive: bafetinib -0.018 | [1] 0.004 | nilotinib -0.113 | [2] -0.184 | dasatinib 0.073 | [3] -0.062 | [4] -0.054 | [5] 0.099 | tipifarnib 0.101 | mubritinib -0.294

ATP2A2 (UniProt P16615)
inactive: bafetinib -0.024 | [1] 0.018 | nilotinib -0.029 | [2] 0.006 | dasatinib -0.046 | [3] 0.005 | [4] 0.017 | [5] 0.011 | tipifarnib -0.01 | mubritinib -0.013

ATP6AP1 (UniProt Q15904)
inactive: bafetinib -0.052 | [1] 0.025 | nilotinib 0.024 | [2] -0.041 | dasatinib 0.016 | [3] -0.041 | [4] -0.081 | [5] -0.064 | tipifarnib 0.011 | mubritinib -0.051
